This passage reports binding results from PMC12590881.

Amino acid sequences for entries named in this document (tags omitted).
UniProt Q99623: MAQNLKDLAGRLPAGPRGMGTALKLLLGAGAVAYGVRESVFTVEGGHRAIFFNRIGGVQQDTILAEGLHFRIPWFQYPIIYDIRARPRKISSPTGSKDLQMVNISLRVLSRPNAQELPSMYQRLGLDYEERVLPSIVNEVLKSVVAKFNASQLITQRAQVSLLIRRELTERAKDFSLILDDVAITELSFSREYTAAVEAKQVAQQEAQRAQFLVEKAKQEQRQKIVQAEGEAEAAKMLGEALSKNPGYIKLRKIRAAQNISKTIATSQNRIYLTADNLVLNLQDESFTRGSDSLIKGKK
UniProt P17931: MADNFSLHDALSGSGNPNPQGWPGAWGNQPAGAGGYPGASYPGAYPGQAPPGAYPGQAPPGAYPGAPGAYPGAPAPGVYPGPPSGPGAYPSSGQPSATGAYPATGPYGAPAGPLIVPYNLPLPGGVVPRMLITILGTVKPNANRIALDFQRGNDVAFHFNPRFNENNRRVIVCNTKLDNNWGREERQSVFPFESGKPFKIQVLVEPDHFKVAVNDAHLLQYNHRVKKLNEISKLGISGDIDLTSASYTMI

Results are given in words; binding and its absence hold for the method and conditions named. In cells and extracts the contact can be indirect. Some results given as binding are weak or reduced against the parent protein; the word gives no strength.

Test [1] has as its target Prohibitin 2 (PHB2) (human (endogenous in HeLa)) (UniProt Q99623). Description: proximity ligation; Duolink in situ PLA, HeLa Parkin cells treated with OA, fixed and permeabilised; rabbit anti-LGALS3 and mouse anti-PHB2.
The target is the same in test [2]. Description: proximity ligation; Duolink in situ PLA, HeLa Parkin cells treated with DMSO (basal), fixed and permeabilised; rabbit anti-LGALS3 and mouse anti-PHB2.

For Galectin-3 (from UniProt P17931 1-250), the binding result in test [1] is recorded as “binds”; in test [2], “binds weakly”.
